The source gives many values for each of these; only a part stands here.
Test system: RNA isoforms in PNN 1-46 SMA type I patient-derived fibroblasts
Assay: RNA Abundance Modulation (RNA isoform abundance, iFPM, HiSeq RNA sequencing)
Assay type: cell-based, human
Conditions: 3 μM
Description: Cells from a cell line of interest are cultured in conditions sufficient to yield the number of cells capable of generating enough RNA for subsequent sequencing steps. Cells from the tested cell line are contacted with a compound described herein.
To culture said cells, they are seeded, at appropriate concentrations in a volume of media in a cell culture container and incubated for 4, 5, 6, 7, 8, 9, 10, or more hours. A concentrated solution of compound in a vehicle (e.g., DMSO) is then added in sufficient volume to result in the intended final concentration of the compound, for example 100 nM, 500 nM, 1 μM, 5 μM, 10 μM, 15 μM, 20 μM, or more. The cells may also be treated with vehicle alone, as a control. A number of replicates of each concentration or control may be made (e.g., 2 replicates). The cells are then incubated at a constant temperature appropriate for cell culture of the particular cell line (e.g., 37° C.) for 6, 12, 18, 24, 48, or more hours. After incubation, the growth medium is removed and the cells are washed with the appropriate buffer (e.g., PBS). Cells are then removed from adherence to the cell culture container by treatment with a solution containing trypsin, and the trypsin subsequently quenched with the appropriate volume of buffer (e.g., DMEM-FBS). The cells are then pelleted with gentle centrifugation (e.g., ≤90×g centrifugal force) and resuspended in a buffer to lyse the cells for extraction of RNA. The cell lysates may then be frozen (e.g., at −80° C.) or, alternately, may immediately be used in a procedure to purify the RNA (e.g. by use of the RNEASY PLUS® minikit). The RNA from cell lysates is eluted in the appropriate volume of buffer (e.g., RNEASE-FREE H2O®). The resulting purified RNA may then be sequenced (e.g., using RNASeq) or analyzed using a human exon array (e.g., by GENECHIP® human exon array) to determine changes in the RNA levels in those cells treated with compound compared to those cells treated only with DMSO. The purified RNA may also be quantified by other methods known in the art.
Using the RNA data obtained from sequencing, exon array, or other methods, a statistical analysis can reveal changes in the RNA levels of compound-treated compared with control. For example, t-test p-values may be calculated for the data obtained through sequencing and exon array methods in order to compare compound-treated cells to those treated with the DMSO control. […] Analysis of the sequencing and exon array data may then also yield predictions about the cause of the aberrant amount of an RNA transcript in the cells (e.g., perturbation of RNA splicing, RNA transcription, or RNA stability). These predictions may be further confirmed by methods known in the art. For example, RT-PCR and RT-qPCR may be used to confirm the change in amount of RNA transcripts for one or more particular transcripts of interest.
Following the methods described above in Example 1, PNN 1-46 SMA type I patient-derived fibroblasts were treated with 300 nM or 3 μM Compounds 774 and 808 in 0.5% DMSO.
700,000 cells were seeded in 10 mL of medium (DMEM plus 10% FBS) in a T-75 flask. Cells were allowed to attach for at least 4 hrs, after which 50 μL of a 200× compound solution (100% DMSO) was added to each well, and the plate was incubated at 37° C. for 24 hrs.
At the end of the incubation period, the supernatant was removed and the cells where washed with PBS. TrypLE (Invitrogen) express solution was added (e.g. 1.5 mL per one T75 flask). The flasks were incubated for 3 to 5 min at 37° C. The trypsin was then quenched, e.g., by adding 10 mL DMEM-FBS.
Next, the cells were pelleted using gentle centrifugation without exceeding 90×g centrifugal force. The supernatant was removed and the cell pellet was re-suspended in 600 μL RLT buffer (the RLT buffer was supplemented with beta-mercaptoethanol according to the RNeasy protocol manual) by pipetting up and down until the pellet was completely dissolved […]

For `CCc1nc(C)cn2nc(-c3cc(=O)n4cc(C5CCN(C)CC5)cc(C)c4n3)cc12` [Compound 774], the “L2abs (Cpd-DMSO)” value (FYN AY429536) was −1.67, the “abs (Cpd-DMSO)” value (FYN AY429536) was 0 iFPM and the “amp FC (x + 1)” value (FYN AY429536) was 1.32. For the same molecule, the “ave Cpd” value (FYN AY429536) was 0 iFPM, the “FC (x + 1)” value (FYN BC015055) was 0.4261 and the “L2FC (x + 1)” value (FYN BC015055) was −1.231. For the same molecule, the “L2abs (Cpd-DMSO)” value (FYN BC015055) was 8.34, the “abs (Cpd-DMSO)” value (FYN BC015055) was 324 iFPM and the “amp FC (x + 1)” value (FYN BC015055) was 2.35. The “ave Cpd” value (FYN BC015055) was 239 iFPM, the “FC (x + 1)” value (FYN NM_002037) was 0.9584 and the “L2FC (x + 1)” value (FYN NM_002037) was −0.061. For the same molecule, the “L2abs (Cpd-DMSO)” value (FYN NM_002037) was 5.84, the “abs (Cpd-DMSO)” value (FYN NM_002037) was 57 iFPM and the “amp FC (x + 1)” value (FYN NM_002037) was 1.04. The “ave Cpd” value (FYN NM_002037) was 1320 iFPM, the “FC (x + 1)” value (FYN NM_153047) was 0.8952 and the “L2FC (x + 1)” value (FYN NM_153047) was −0.160. For the same molecule, the “L2abs (Cpd-DMSO)” value (FYN NM_153047) was 5.93, the “abs (Cpd-DMSO)” value (FYN NM_153047) was 61 iFPM and the “amp FC (x + 1)” value (FYN NM_153047) was 1.12. The “ave Cpd” value (FYN NM_153047) was 521 iFPM, the “FC (x + 1)” value (FYN NM_153048) was 1.0000 and the “L2FC (x + 1)” value (FYN NM_153048) was 0.000. The “L2abs (Cpd-DMSO)” value (FYN NM_153048) was 0, the “abs (Cpd-DMSO)” value (FYN NM_153048) was 0 iFPM and the “amp FC (x + 1)” value (FYN NM_153048) was 1.00. For the same molecule, the “ave Cpd” value (FYN NM_153048) was 0 iFPM, the “FC (x + 1)” value (GABPB1 AK303901) was 0.6876 and the “L2FC (x + 1)” value (GABPB1 AK303901) was −0.540. The “L2abs (Cpd-DMSO)” value (GABPB1 AK303901) was 2.33, the “abs (Cpd-DMSO)” value (GABPB1 AK303901) was 5 iFPM and the “amp FC (x + 1)” value (GABPB1 AK303901) was 1.45. The “ave Cpd” value (GABPB1 AK303901) was 10 iFPM, the “FC (x + 1)” value (GABPB1 D13316) was 0.6120 and the “L2FC (x + 1)” value (GABPB1 D13316) was −0.708. For the same molecule, the “L2abs (Cpd-DMSO)” value (GABPB1 D13316) was 4.96, the “abs (Cpd-DMSO)” value (GABPB1 D13316) was 31 iFPM and the “amp FC (x + 1)” value (GABPB1 D13316) was 1.63. For the same molecule, the “ave Cpd” value (GABPB1 D13316) was 48 iFPM, the “FC (x + 1)” value (GABPB1 NM_002041) was 2.0203 and the “L2FC (x + 1)” value (GABPB1 NM_002041) was 1.015. For the same molecule, the “L2abs (Cpd-DMSO)” value (GABPB1 NM_002041) was 5.32, the “abs (Cpd-DMSO)” value (GABPB1 NM_002041) was 40 iFPM and the “amp FC (x + 1)” value (GABPB1 NM_002041) was 2.02. For the same molecule, the “ave Cpd” value (GABPB1 NM_002041) was 78 iFPM, the “FC (x + 1)” value (GABPB1 NM_005254) was 0.8504 and the “L2FC (x + 1)” value (GABPB1 NM_005254) was −0.234. The “L2abs (Cpd-DMSO)” value (GABPB1 NM_005254) was 6.05, the “abs (Cpd-DMSO)” value (GABPB1 NM_005254) was 66 iFPM and the “amp FC (x + 1)” value (GABPB1 NM_005254) was 1.18. For the same molecule, the “ave Cpd” value (GABPB1 NM_005254) was 375 iFPM, the “FC (x + 1)” value (GABPB1 NM_016654) was 3.8139 and the “L2FC (x + 1)” value (GABPB1 NM_016654) was 1.931. The “L2abs (Cpd-DMSO)” value (GABPB1 NM_016654) was 7.61, the “abs (Cpd-DMSO)” value (GABPB1 NM_016654) was 195 iFPM and the “amp FC (x + 1)” value (GABPB1 NM_016654) was 3.81. For the same molecule, the “ave Cpd” value (GABPB1 NM_016654) was 263 iFPM, the “FC (x + 1)” value (GABPB1 NM_016655) was 0.2239 and the “L2FC (x + 1)” value (GABPB1 NM_016655) was −2.159. For the same molecule, the “L2abs (Cpd-DMSO)” value (GABPB1 NM_016655) was 6.15, the “abs (Cpd-DMSO)” value (GABPB1 NM_016655) was 71 iFPM and the “amp FC (x + 1)” value (GABPB1 NM_016655) was 4.47. For the same molecule, the “ave Cpd” value (GABPB1 NM_016655) was 19 iFPM, the “FC (x + 1)” value (GABPB1 NM_181427) was 1.7862 and the “L2FC (x + 1)” value (GABPB1 NM_181427) was 0.837. The “L2abs (Cpd-DMSO)” value (GABPB1 NM_181427) was 5.30, the “abs (Cpd-DMSO)” value (GABPB1 NM_181427) was 40 iFPM and the “amp FC (x + 1)” value (GABPB1 NM_181427) was 1.79. For the same molecule, the “ave Cpd” value (GABPB1 NM_181427) was 89 iFPM, the “FC (x + 1)” value (GALC AK302683) was 0.7522 and the “L2FC (x + 1)” value (GALC AK302683) was −0.411. For the same molecule, the “L2abs (Cpd-DMSO)” value (GALC AK302683) was −0.21, the “abs (Cpd-DMSO)” value (GALC AK302683) was 1 iFPM and the “amp FC (x + 1)” value (GALC AK302683) was 1.33. The “ave Cpd” value (GALC AK302683) was 2 iFPM, the “FC (x + 1)” value (GALC D25284) was 0.4748 and the “L2FC (x + 1)” value (GALC D25284) was −1.075. For the same molecule, the “L2abs (Cpd-DMSO)” value (GALC D25284) was 0.59, the “abs (Cpd-DMSO)” value (GALC D25284) was 2 iFPM and the “amp FC (x + 1)” value (GALC D25284) was 2.11. The “ave Cpd” value (GALC D25284) was 0 iFPM, the “FC (x + 1)” value (GALC NM_000153) was 0.1615 and the “L2FC (x + 1)” value (GALC NM_000153) was −2.631. For the same molecule, the “L2abs (Cpd-DMSO)” value (GALC NM_000153) was 8.63, the “abs (Cpd-DMSO)” value (GALC NM_000153) was 395 iFPM and the “amp FC (x + 1)” value (GALC NM_000153) was 6.19. The “ave Cpd” value (GALC NM_000153) was 75 iFPM, the “FC (x + 1)” value (GALC NM_001201401) was 1.0000 and the “L2FC (x + 1)” value (GALC NM_001201401) was 0.000. The “L2abs (Cpd-DMSO)” value (GALC NM_001201401) was 0, the “abs (Cpd-DMSO)” value (GALC NM_001201401) was 0 iFPM and the “amp FC (x + 1)” value (GALC NM_001201401) was 1.00. For the same molecule, the “ave Cpd” value (GALC NM_001201401) was 0 iFPM, the “FC (x + 1)” value (GALC NM_001201402) was 31.6822 and the “L2FC (x + 1)” value (GALC NM_001201402) was 4.986. For the same molecule, the “L2abs (Cpd-DMSO)” value (GALC NM_001201402) was 4.94, the “abs (Cpd-DMSO)” value (GALC NM_001201402) was 31 iFPM and the “amp FC (x + 1)” value (GALC NM_001201402) was 31.68. For the same molecule, the “ave Cpd” value (GALC NM_001201402) was 31 iFPM, the “FC (x + 1)” value (GAS7 AK293755) was 1.0000 and the “L2FC (x + 1)” value (GAS7 AK293755) was 0.000. For the same molecule, the “L2abs (Cpd-DMSO)” value (GAS7 AK293755) was 0, the “abs (Cpd-DMSO)” value (GAS7 AK293755) was 0 iFPM and the “amp FC (x + 1)” value (GAS7 AK293755) was 1.00. The “ave Cpd” value (GAS7 AK293755) was 0 iFPM, the “FC (x + 1)” value (GAS7 AK294829) was 1.5112 and the “L2FC (x + 1)” value (GAS7 AK294829) was 0.596. For the same molecule, the “L2abs (Cpd-DMSO)” value (GAS7 AK294829) was 6.32, the “abs (Cpd-DMSO)” value (GAS7 AK294829) was 80 iFPM and the “amp FC (x + 1)” value (GAS7 AK294829) was 1.51. The “ave Cpd” value (GAS7 AK294829) was 235 iFPM, the “FC (x + 1)” value (GAS7 NM_003644) was 0.0159 and the “L2FC (x + 1)” value (GAS7 NM_003644) was −5.978. For the same molecule, the “L2abs (Cpd-DMSO)” value (GAS7 NM_003644) was 5.95, the “abs (Cpd-DMSO)” value (GAS7 NM_003644) was 62 iFPM and the “amp FC (x + 1)” value (GAS7 NM_003644) was 63.03. The “ave Cpd” value (GAS7 NM_003644) was 0 iFPM, the “FC (x + 1)” value (GAS7 NM_201433) was 0.8704 and the “L2FC (x + 1)” value (GAS7 NM_201433) was −0.200. The “L2abs (Cpd-DMSO)” value (GAS7 NM_201433) was 6.85, the “abs (Cpd-DMSO)” value (GAS7 NM_201433) was 115 iFPM and the “amp FC (x + 1)” value (GAS7 NM_201433) was 1.15.
